Inconclusive results, whose numbers are uncertain, are shown with a selection of clear calls. Potencies of inconclusive entries are doubtful fits and often do not repeat. Calls of active or inactive are those of the source. Calls come from the whole dose curve; as a rule, active = well fitted inhibition curve with a large enough effect; inconclusive = small, poorly fitted or top-dose-only effect; inactive = flat fitted curve, though single readings scatter.
molecular target: Ferritin light chain (Equus caballus) (UniProt P02791); assay: Confirmation Assay for Identification of Novel General Anesthetics; details: apoferritin 1-aminoanthracene fluorescence displacement; note: nearly all actives have a fitted effect of over 40% in size
How it was run: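 Competitive displacement of profluorescent 1-aminoanthracene from 10 uM horse-spleen apoferritin in 50% saturated 1-AMA/PBS; 10 min RT, fluorescence Ex 380/Em 535. Normalized to free 1-AMA and complex; four-parameter Hill fit.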
Potency is the fitted concentration of half-maximal effect.

Sequences of proteins named here, by UniProt entry; tags and fusion partners are left off. Residues count along the entry.
UniProt P02791, 2-175 limits assumed: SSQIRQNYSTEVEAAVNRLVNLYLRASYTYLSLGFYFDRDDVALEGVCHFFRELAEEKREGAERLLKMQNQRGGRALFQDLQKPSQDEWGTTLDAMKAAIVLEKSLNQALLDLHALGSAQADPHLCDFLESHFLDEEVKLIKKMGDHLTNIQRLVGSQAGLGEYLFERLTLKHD

Potency, inconclusive:
CCCCCCNS(=O)(=O)c1ccc(OC)c(OC)c1 15.8 µM [inhibitor, partial curve]
O=C(Nc1cc(C(F)(F)F)ccc1F)C1CCCC1 35.5 µM [inhibitor, partial curve]
O=C(Nc1ccc(Cl)c(Cl)c1)N1CC=CCC1 10 µM [inhibitor, partial curve]
Nc1nnc(CSc2ccc(Cl)cc2)s1 14.1 µM [inhibitor, partial curve]
O=C1COc2ccccc2N1Cc1ccccc1Cl 15.8 µM [inhibitor, partial curve]
Clc1ccc(Cn2ncc3c(NCc4ccccc4)ncnc32)cc1 20 µM [inhibitor, partial curve]
COc1cccc(NS(=O)(=O)c2c(C)cc(C)cc2C)c1 39.8 µM [inhibitor, partial curve]
c1csc(CSc2nc3ccccc3s2)c1 8.91 µM [inhibitor, full curve]
Cc1c(C(=O)N2c3ccccc3CC2C)oc2ccccc12 (centres undefined) 14.1 µM [inhibitor, partial curve]
O=C(NCCCl)c1ccc(OCc2ccccc2)cc1Cl 31.6 µM [inhibitor, partial curve]
Cc1cc(S(=O)(=O)Nc2cccc(Cl)c2)c(C)s1 31.6 µM [inhibitor, partial curve]
COC(=O)CC1=C(C)C(=O)CC2C(C)(C)CCCC12C (centres undefined) 17.8 µM [inhibitor, partial curve]
Cc1ccccc1-c1nc(-c2ccccn2)no1 31.6 µM [inhibitor, partial curve]
CC1CC(NC(=O)c2ncn[nH]2)CC(C)(C)C1 (centres undefined) 20 µM [inhibitor, partial curve]
O=C(COc1ccc(F)c(Cl)c1)c1ccc[nH]1 35.5 µM [inhibitor, partial curve]
COc1cc(SC)ccc1C(=O)N1CCN(c2ccccc2)CC1 11.2 µM [inhibitor, partial curve]
C/C(=N\O)C(=O)OC1CC(C)CCC1C(C)C (centres undefined) 28.2 µM [inhibitor, partial curve]
O=C(Nc1ccccc1F)C1COc2ccccc2O1 (centres undefined) 31.6 µM [inhibitor, partial curve]
O=C1NC2(CCCCCC2)Cc2ccccc21 39.8 µM [inhibitor, partial curve]
Cc1cccc(NS(=O)(=O)c2ccc3c(c2)OCCO3)c1 31.6 µM [inhibitor, partial curve]
Cn1ncc(Cl)c1C(=O)NC1C2CC3CC(C2)CC1C3 (centres undefined) 28.2 µM [inhibitor, partial curve]

In the list so far, these contain fluorine:
Potency, inconclusive:
O=C(Nc1cc(C(F)(F)F)ccc1F)C1CCCC1 35.5 µM [inhibitor, partial curve]
O=C(COc1ccc(F)c(Cl)c1)c1ccc[nH]1 35.5 µM [inhibitor, partial curve]
O=C(Nc1ccccc1F)C1COc2ccccc2O1 (centres undefined) 31.6 µM [inhibitor, partial curve]

Following part.

Potency, active:
Cc1ccccc1NCc1ccccc1O 15.8 µM
O=C(Cc1cccc2ccccc12)N1CCCc2ccccc21 17.8 µM
CC1(COc2ccc(CC3SC(=O)NC3=O)cc2)CCCCC1 (centres undefined) 14.1 µM

Reference: PubChem BioAssay AID489008 (National Center for Advancing Translational Sciences (NCATS), 2010)
